Assay results: the supplement of paper PMC10849652
This is one part of the list.

Chains of the proteins cited; added tags and fusions are not shown. Lines headed by an entry give the natural chain unless they say otherwise; changes in a name come on top.
UniProt Q9H6E5: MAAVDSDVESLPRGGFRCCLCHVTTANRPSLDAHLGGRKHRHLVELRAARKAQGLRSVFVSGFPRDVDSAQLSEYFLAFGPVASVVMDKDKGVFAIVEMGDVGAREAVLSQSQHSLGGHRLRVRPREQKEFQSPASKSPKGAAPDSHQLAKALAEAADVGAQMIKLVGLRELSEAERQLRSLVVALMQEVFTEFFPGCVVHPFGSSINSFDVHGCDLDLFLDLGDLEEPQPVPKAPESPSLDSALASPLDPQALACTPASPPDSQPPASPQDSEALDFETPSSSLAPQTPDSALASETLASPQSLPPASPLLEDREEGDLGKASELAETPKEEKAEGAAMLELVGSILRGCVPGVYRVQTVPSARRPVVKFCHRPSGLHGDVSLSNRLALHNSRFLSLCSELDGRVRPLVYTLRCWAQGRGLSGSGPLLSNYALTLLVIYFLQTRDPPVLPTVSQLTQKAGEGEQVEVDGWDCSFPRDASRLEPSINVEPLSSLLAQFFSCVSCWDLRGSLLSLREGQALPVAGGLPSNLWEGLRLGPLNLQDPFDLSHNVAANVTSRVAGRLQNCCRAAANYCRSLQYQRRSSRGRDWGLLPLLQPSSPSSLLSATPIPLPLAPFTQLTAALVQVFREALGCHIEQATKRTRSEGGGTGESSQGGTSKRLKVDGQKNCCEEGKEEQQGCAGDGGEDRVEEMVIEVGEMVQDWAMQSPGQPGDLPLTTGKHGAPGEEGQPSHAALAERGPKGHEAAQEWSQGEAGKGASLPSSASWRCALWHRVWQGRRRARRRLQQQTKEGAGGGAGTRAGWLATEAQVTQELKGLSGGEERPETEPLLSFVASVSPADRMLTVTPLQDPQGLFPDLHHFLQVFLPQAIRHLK
UniProt Q9BZX2: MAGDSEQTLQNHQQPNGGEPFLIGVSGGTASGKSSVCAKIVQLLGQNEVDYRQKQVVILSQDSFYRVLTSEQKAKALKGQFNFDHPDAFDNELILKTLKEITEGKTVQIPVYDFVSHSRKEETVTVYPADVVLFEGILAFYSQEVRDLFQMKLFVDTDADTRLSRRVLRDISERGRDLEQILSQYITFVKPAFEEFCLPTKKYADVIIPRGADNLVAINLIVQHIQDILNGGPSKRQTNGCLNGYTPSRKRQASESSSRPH
UniProt P26368, whole entry, looked up: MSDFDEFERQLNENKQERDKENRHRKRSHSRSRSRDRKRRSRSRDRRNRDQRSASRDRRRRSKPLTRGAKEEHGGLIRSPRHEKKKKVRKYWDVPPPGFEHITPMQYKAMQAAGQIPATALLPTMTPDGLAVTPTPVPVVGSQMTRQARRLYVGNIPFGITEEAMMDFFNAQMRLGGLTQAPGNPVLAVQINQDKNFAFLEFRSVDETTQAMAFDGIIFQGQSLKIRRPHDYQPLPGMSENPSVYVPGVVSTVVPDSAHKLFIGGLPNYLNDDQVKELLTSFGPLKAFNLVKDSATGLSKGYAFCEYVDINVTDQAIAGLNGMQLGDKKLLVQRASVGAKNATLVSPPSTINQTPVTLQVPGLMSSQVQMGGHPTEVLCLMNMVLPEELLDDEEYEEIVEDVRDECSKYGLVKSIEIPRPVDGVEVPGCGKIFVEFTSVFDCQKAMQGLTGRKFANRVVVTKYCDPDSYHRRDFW
UniProt Q9BSJ2, whole entry, looked up: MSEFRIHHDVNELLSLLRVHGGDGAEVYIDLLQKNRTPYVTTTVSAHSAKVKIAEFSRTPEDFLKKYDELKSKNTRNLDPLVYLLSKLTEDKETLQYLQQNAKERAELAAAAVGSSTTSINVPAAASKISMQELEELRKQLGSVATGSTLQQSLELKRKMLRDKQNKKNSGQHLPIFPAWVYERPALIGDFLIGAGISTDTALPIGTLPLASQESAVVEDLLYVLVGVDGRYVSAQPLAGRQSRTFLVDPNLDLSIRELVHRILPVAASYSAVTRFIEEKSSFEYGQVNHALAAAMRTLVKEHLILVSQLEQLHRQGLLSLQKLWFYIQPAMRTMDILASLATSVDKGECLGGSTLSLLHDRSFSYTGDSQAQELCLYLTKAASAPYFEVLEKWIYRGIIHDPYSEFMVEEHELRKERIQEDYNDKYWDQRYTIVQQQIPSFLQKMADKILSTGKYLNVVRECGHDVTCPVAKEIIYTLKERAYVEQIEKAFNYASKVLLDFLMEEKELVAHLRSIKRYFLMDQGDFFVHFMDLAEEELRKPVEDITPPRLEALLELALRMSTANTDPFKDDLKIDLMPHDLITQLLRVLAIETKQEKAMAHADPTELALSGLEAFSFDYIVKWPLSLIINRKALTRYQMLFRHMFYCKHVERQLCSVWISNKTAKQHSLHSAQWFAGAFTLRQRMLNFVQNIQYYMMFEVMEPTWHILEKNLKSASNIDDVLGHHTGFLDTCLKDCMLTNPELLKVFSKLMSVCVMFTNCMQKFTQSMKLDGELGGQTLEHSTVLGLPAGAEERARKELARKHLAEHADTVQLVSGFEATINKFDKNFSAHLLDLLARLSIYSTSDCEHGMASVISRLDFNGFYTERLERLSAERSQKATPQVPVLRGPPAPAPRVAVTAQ
UniProt P10599: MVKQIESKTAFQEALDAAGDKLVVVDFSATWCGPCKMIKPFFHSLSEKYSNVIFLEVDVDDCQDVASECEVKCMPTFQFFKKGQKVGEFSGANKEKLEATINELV
UniProt Q8NBS9: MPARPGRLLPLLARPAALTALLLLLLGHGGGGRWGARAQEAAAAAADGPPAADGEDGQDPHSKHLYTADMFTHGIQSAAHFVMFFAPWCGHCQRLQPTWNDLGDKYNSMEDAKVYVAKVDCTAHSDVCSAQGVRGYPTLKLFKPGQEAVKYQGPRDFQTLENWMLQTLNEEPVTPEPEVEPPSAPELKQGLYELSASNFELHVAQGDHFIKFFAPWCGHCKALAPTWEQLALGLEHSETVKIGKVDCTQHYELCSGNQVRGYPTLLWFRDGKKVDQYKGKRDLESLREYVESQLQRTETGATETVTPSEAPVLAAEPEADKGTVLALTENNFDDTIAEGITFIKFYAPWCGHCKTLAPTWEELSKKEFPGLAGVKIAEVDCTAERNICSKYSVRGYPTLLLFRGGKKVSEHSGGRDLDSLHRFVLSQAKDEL
UniProt Q92575: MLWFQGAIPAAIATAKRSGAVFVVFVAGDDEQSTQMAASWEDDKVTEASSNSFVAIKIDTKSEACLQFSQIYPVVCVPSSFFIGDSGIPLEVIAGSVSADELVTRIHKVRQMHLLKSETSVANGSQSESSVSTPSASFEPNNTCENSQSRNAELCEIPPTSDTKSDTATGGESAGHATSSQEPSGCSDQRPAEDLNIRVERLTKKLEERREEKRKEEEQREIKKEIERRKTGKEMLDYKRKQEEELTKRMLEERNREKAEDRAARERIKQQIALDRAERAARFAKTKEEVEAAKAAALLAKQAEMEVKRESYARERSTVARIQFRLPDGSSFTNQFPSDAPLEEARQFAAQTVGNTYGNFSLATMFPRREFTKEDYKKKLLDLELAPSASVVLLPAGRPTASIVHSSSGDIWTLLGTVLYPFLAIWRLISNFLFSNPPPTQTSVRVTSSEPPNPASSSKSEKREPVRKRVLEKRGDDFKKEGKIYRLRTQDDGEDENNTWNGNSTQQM
UniProt A6NHL2: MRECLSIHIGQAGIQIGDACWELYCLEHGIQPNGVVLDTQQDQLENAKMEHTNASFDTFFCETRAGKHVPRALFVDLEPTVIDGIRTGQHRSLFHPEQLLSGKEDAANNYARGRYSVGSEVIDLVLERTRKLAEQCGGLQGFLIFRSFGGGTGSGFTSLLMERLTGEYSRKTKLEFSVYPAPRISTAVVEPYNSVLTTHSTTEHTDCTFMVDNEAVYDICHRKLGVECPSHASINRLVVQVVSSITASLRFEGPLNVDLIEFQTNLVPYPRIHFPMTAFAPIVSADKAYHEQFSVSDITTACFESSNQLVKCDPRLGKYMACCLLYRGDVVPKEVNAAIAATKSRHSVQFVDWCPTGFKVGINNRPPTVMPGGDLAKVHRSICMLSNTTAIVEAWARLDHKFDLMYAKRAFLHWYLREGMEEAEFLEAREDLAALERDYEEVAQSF
UniProt Q8NBM4: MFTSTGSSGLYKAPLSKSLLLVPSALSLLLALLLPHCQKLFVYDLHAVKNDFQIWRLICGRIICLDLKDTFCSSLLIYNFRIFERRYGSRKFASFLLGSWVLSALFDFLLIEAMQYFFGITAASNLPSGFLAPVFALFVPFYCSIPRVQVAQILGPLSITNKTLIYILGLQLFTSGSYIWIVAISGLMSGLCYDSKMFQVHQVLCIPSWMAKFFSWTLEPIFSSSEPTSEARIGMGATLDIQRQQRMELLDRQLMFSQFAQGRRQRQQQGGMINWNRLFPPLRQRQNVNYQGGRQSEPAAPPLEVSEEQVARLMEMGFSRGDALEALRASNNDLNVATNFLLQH
UniProt Q01081: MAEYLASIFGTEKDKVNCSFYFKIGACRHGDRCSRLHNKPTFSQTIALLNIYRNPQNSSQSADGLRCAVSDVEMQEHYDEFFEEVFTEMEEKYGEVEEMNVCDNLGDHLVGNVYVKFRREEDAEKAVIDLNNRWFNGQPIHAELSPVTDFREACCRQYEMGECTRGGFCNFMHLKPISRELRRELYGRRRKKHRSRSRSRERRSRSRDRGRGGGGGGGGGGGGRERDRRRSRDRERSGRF
UniProt Q7Z7E8: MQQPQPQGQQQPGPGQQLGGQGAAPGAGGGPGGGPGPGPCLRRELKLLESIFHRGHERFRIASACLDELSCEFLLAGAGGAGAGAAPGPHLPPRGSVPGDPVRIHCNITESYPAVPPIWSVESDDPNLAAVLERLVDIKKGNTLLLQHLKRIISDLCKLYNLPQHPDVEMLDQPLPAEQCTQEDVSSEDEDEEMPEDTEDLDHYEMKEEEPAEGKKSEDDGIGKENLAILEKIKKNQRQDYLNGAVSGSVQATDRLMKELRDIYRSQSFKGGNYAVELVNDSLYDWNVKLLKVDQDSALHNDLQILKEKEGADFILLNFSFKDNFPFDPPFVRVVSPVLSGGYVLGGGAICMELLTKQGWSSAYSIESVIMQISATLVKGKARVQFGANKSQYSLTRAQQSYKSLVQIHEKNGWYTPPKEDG
UniProt Q9NNW7, whole entry, looked up: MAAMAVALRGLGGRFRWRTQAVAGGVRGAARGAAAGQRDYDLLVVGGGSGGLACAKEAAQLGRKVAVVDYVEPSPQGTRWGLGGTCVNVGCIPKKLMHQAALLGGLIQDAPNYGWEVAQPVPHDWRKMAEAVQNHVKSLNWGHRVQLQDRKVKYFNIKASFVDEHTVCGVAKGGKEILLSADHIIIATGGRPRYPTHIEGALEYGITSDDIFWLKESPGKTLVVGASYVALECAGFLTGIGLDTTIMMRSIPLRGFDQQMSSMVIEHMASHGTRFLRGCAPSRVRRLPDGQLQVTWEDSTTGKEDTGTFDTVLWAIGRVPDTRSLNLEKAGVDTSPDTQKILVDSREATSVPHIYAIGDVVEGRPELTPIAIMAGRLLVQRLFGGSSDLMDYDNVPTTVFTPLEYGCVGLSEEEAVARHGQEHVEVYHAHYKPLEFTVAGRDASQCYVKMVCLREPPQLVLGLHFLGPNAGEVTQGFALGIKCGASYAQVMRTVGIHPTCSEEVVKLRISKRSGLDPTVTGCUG
UniProt P68543: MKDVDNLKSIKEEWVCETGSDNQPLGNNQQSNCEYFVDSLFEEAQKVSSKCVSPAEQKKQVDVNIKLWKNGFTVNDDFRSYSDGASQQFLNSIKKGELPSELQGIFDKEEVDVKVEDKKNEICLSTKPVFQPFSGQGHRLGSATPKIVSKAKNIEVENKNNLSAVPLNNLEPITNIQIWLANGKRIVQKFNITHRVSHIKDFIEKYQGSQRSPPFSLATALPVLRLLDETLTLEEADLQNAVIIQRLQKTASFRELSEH
UniProt P0CG48, whole entry, looked up: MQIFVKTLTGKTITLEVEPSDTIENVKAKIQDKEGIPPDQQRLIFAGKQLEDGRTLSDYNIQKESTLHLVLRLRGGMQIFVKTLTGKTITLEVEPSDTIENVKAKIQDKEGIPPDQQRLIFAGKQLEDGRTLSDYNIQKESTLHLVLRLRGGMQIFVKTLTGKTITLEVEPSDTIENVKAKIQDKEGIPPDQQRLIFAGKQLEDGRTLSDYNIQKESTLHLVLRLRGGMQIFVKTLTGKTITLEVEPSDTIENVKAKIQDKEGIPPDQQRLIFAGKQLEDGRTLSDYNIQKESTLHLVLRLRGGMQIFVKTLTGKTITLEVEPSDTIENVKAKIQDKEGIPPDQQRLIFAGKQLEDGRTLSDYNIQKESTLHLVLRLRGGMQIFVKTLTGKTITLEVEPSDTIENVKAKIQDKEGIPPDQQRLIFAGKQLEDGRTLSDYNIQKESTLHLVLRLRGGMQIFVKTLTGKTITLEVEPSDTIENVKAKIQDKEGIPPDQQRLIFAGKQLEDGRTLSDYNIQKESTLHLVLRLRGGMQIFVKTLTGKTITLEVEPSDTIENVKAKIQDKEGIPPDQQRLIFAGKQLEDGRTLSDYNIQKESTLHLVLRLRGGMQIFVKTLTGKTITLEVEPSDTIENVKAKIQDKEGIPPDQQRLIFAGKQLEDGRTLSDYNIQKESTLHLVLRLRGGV
UniProt O75896: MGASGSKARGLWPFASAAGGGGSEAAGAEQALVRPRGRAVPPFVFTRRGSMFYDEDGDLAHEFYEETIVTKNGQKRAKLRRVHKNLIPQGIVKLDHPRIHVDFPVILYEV

Columns and labels:
Experiment in all cases: log2 fold change, soluble protein after heating vs DMSO (PISA); higher = thermal stabilisation; K562 lysate, 10 uM; active = over 0.2 and 3.5 SD of the protein, either way, in both replicates (recomputed)
[1] = compound: C=CC(=O)N1CCC[C@@H](n2nc(-c3ccc(Oc4ccccc4)cc3)c3c(N)ncnc32)C1 [ibrutinib]
Summary of the method: (§1)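 Soluble protein was defined as the supernatant remaining after 21,000xg for 90 min, following pooling of heated aliquots and adjustment to 0.5% NP-40 at 4°C. Before that, crude K562 extract at 1 mg/mL protein in PBS pH 7.4 with 1 mM MgCl2 was treated with 10 μM compound for 30 min and heated for 3 min across 48°C-58°C. Quantification used TMTpro 16plex LC-MS/MS with channel sums equalised, and values are log-two fold changes in thermal stability relative to solvent controls from duplicates.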

[2] = compound: CC(=O)c1cnc2ccc(-c3cc(Cl)c(O)c(Cl)c3)nc2c1N[C@H]1CC[C@H](CN(C)C)CC1
Summary of the method: as §1

[3] = compound: CC(C)(C)Cn1c(N)nc2ccc(-c3[nH]c(C(C)(C)C)nc3-c3ccc(F)cc3)nc21 [ralimetinib]
Summary of the method: as §1

[4] = compound: CC(C)(O)CC(=O)NCCn1ccc2ncnc(Nc3ccc(Oc4cccc(C(F)(F)F)c4)c(Cl)c3)c21
Summary of the method: as §1

[5] = compound: CC(C)C1=C2N=C(C=C(N2N=C1)NCC3=CC=CC=C3)NCCCCCCN
Summary of the method: as §1

[6] = compound: CC1=C(C(CC(=O)N1)C2=CC=C(C=C2)C(F)(F)F)C(=O)NC3=C(C=C4C(=C3)C=NN4)F
Summary of the method: as §1

[7] = compound: CC1=C(C2=C(C=C1)C(=O)C3=CC=CC=C3N2CCCN)C
Summary of the method: as §1

[8] = compound: CC1=C(C=C(C=C1)NC(=O)C2=CC(=CC=C2)C(C)(C)C#N)NC3=CC4=C(C=C3)N=CN(C4=O)C
Summary of the method: as §1

[9] = compound: CC1=C(C=C(C=C1)NC(=O)C2=CC(=CC=C2)N(C)C)NC(=O)C3=CC=C(C=C3)O
Summary of the method: as §1

[10] = compound: CC1=CC=C(C=C1)SC2=C3C=C(SC3=CN=C2)C(=O)N
Summary of the method: as §1

Measured: log2 fold change

TUT1 (UniProt Q9H6E5)
inactive: [1] 0.017 | [2] 0.002 | [3] 0.006 | [4] -0.029 | [5] -0.001 | [6] 0.036 | [7] 0.028 | [8] -0.057 | [9] 0.007 | [10] 0.006

UCHL5 isoform 3 (UniProt Q9Y5K5)
inactive: [1] 0 | [2] -0.001 | [3] 0.01 | [4] -0.008 | [5] 0.015 | [6] 0.014 | [7] 0.011 | [8] -0.029 | [9] 0.004 | [10] 0.012

UCK2 (UniProt Q9BZX2)
inactive: [1] 0.073 | [2] 0.037 | [3] 0.036 | [4] 0.022 | [5] 0.019 | [6] 0.022 | [7] -0.002 | [8] -0.015 | [9] 0.008 | [10] -0.01

UBA6
inactive: [1] -0.003 | [2] 0.002 | [3] 0.007 | [4] -0.007 | [5] -0.011 | [6] -0.006 | [7] -0.006 | [8] -0.01 | [9] 0.013 | [10] 0.009

TUBB3 (UniProt Q13509)
inactive: [1] 0.003 | [2] 0.009 | [3] 0.022 | [4] -0.019 | [5] 0.025 | [6] 0.013 | [7] 0.005 | [8] -0.007 | [9] 0.015 | [10] 0.019

U2AF2 (UniProt P26368)
inactive: [1] 0.033 | [2] -0.019 | [3] 0.002 | [4] -0.004 | [5] 0.032 | [6] -0.02 | [7] 0.016 | [8] 0.011 | [9] -0.002 | [10] -0.008

TUBGCP2 isoform 4 (UniProt Q9BSJ2)
inactive: [1] -0.001 | [2] 0.042 | [3] -0.007 | [4] -0.016 | [5] -0.006 | [6] 0.011 | [7] -0.023 | [8] 0.035 | [9] 0.048 | [10] -0.017

TXN (UniProt P10599)
inactive: [1] -0.061 | [2] 0 | [3] -0.029 | [4] 0.007 | [5] -0.014 | [6] -0.038 | [7] -0.002 | [8] -0.008 | [9] -0.007 | [10] -0.015

UCK1 isoform 4 (UniProt Q9HA47)
inactive: [1] -0.091 | [2] -0.055 | [3] -0.04 | [4] 0.018 | [5] -0.021 | [6] -0.053 | [7] -0.014 | [8] 0.01 | [9] 0.046 | [10] 0.013

TXNDC5 (UniProt Q8NBS9)
inactive: [1] 0 | [2] -0.005 | [3] -0.024 | [4] -0.011 | [5] -0.004 | [6] -0.013 | [7] 0.014 | [8] 0.017 | [9] -0.032 | [10] -0.015

UBE2D1 (UniProt P51668)
inactive: [1] -0.033 | [2] 0.017 | [3] -0.009 | [4] 0.073 | [5] 0.01 | [6] -0.03 | [7] -0.007 | [8] -0.002 | [9] 0.043 | [10] -0.007

UBXN4 (UniProt Q92575)
inactive: [1] -0.033 | [2] -0.045 | [3] 0.036 | [4] -0.016 | [5] -0.02 | [6] 0.046 | [7] -0.025 | [8] -0.01 | [9] 0.019 | [10] -0.008

UBLCP1 (UniProt Q8WVY7)
inactive: [1] -0.043 | [2] 0.015 | [3] -0.009 | [4] 0.047 | [5] -0.034 | [6] 0.01 | [7] 0.025 | [8] -0.003 | [9] 0.007 | [10] 0.028

TYMS (UniProt P04818)
inactive: [1] -0.041 | [2] -0.017 | [3] 0.014 | [4] 0.029 | [5] 0.01 | [6] 0.001 | [7] 0.043 | [8] -0.005 | [9] -0.001 | [10] -0.022

TUBAL3 (UniProt A6NHL2)
inactive: [1] 0.002 | [2] -0.071 | [3] 0.056 | [4] -0.145 | [5] 0.116 | [6] -0.009 | [7] -0.008 | [9] -0.119 | [10] 0.025

UBAC2 (UniProt Q8NBM4)
inactive: [1] 0.148 | [2] -0.116 | [3] 0.039 | [4] -0.016 | [5] 0.071 | [7] -0.051 | [8] -0.019 | [9] -0.022 | [10] 0.038

UBE2Q2 (UniProt Q8WVN8)
inactive: [1] 0.046 | [2] 0.061 | [3] 0.014 | [4] -0.058 | [5] 0.131 | [6] 0.026 | [7] -0.042 | [9] -0.152 | [10] 0.086

U2AF1 isoform 2 (UniProt Q01081)
inactive: [1] 0.02 | [2] 0.005 | [3] 0.013 | [4] 0.016 | [5] 0.013 | [6] 0.013 | [7] 0.03 | [8] 0.099 | [9] 0.008 | [10] 0.019

TXLNA (UniProt P40222)
inactive: [1] -0.003 | [2] 0.006 | [3] 0.002 | [4] 0.017 | [5] 0.022 | [6] -0.01 | [7] 0.017 | [8] -0.026 | [9] -0.004 | [10] -0.009

TUBB1 (UniProt Q9H4B7)
inactive: [1] -0.005 | [2] -0.01 | [3] -0.003 | [4] -0.007 | [5] 0 | [6] 0.049 | [7] 0.028 | [8] -0.036 | [9] 0.002 | [10] 0.012

TUBB6 (UniProt K7ES63)
inactive: [1] -0.005 | [2] 0.076 | [3] 0.094 | [4] -0.07 | [5] 0.132 | [6] -0.061 | [8] -0.005 | [9] 0.027 | [10] -0.098

UBA52 (UniProt P62987)
inactive: [1] -0.007 | [2] -0.025 | [5] 0.119 | [6] 0.006 | [8] 0.034 | [10] 0

TUBB4A (UniProt M0QYM7)
inactive: [1] 0.092 | [2] 0.049 | [3] 0.103 | [4] -0.117 | [5] 0.005 | [6] -0.102 | [8] 0.13 | [9] 0.102 | [10] 0.024

UBE2Q1 (UniProt Q7Z7E8)
inactive: [1] 0.018 | [2] -0.031 | [3] 0.024 | [4] -0.017 | [5] -0.011 | [6] 0.007 | [7] -0.014 | [8] 0.004 | [9] 0.016 | [10] -0.049

TXNRD1 isoform 7 (UniProt Q16881)
inactive: [1] 0.061 | [2] 0.09 | [3] -0.129 | [4] -0.3 | [7] -0.083 | [9] 0.067 | [10] -0.197

TXNRD2 (UniProt Q9NNW7)
inactive: [1] 0.014 | [2] -0.002 | [3] 0.025 | [4] -0.107 | [5] 0 | [6] 0.008 | [7] -0.038 | [8] -0.014 | [9] 0.001 | [10] 0.006

UCHL5 (UniProt Q5LJA9)
inactive: [1] 0.009 | [2] 0.078 | [3] -0.007 | [4] -0.113 | [5] 0.044 | [7] 0 | [8] 0.012 | [9] 0.035 | [10] 0.01

UBXN2A (UniProt P68543)
inactive: [1] 0.096 | [2] -0.019 | [3] 0.048 | [4] -0.039 | [5] 0.015 | [7] 0.004 | [8] -0.007 | [9] -0.001 | [10] 0.099

UBC (UniProt P0CG48)
inactive: [1] 0.01 | [2] 0 | [3] 0.007 | [4] 0.021 | [5] 0.011 | [6] -0.053 | [7] -0.006 | [8] 0.021 | [9] 0.025 | [10] -0.007

TUSC2 (UniProt O75896)
inactive: [1] -0.023 | [2] -0.124 | [3] -0.094 | [4] 0.147 | [5] -0.086 | [6] 0.01 | [7] -0.024 | [9] -0.296 | [10] -0.021

UBR7 (UniProt Q8N806)
inactive: [1] 0.032 | [2] -0.012 | [3] -0.025 | [4] -0.003 | [5] -0.006 | [6] -0.006 | [7] 0.033 | [8] -0.02 | [9] -0.006 | [10] 0

Taken from the listing (two entries):
TUT1 (UniProt Q9H6E5)
inactive: [1] 0.017 | [2] 0.002 | [3] 0.006 | [4] -0.029 | [5] -0.001 | [6] 0.036 | [7] 0.028 | [8] -0.057 | [9] 0.007 | [10] 0.006

UCHL5 isoform 3 (UniProt Q9Y5K5)
inactive: [1] 0 | [2] -0.001 | [3] 0.01 | [4] -0.008 | [5] 0.015 | [6] 0.014 | [7] 0.011 | [8] -0.029 | [9] 0.004 | [10] 0.012
